At least one compound was matched to its structure with a doubt left.
How the values were obtained:
[1] = test system: bovine PI-PLC; assay: In vitro inhibition of bovine PI-PLC; type: biochemical; conditions: same assay conditions as Table 2
[2] = molecular target: PI-3kinase; conditions: previously found; cited from earlier work
[3] = administered orally as well as parenterally; cited from earlier work
[4] = molecular target: human Akt (Homo sapiens, UniProt P31749); assay: Inhibition of PDGF-stimulated Akt activation in transfected NIH 3T3 cells; type: cell-based; conditions: 6 hours exposure

Chains of the proteins cited; added tags and fusions are not shown. Lines headed by an entry give the natural chain unless they say otherwise; changes in a name come on top.
UniProt P31749: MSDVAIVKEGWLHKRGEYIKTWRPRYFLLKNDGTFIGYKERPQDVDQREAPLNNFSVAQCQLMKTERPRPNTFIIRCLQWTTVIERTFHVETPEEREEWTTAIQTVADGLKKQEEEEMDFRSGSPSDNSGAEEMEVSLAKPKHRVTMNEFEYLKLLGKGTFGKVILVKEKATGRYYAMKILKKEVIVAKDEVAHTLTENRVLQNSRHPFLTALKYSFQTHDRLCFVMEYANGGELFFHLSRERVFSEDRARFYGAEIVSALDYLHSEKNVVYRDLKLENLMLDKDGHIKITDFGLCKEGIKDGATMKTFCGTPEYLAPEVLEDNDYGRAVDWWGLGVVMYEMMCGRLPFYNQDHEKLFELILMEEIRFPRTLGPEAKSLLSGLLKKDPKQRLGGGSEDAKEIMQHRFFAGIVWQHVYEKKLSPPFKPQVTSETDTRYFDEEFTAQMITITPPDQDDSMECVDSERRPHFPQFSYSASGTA

| Compound | IC50 [1] | IC50 [2] | clinical anti-tumor activity [3] | Akt activation [4] |
| --- | --- | --- | --- | --- |
| CCCCCCCCCCCCCCCCCCOCC(COP(=O)([O-])OCC[N+](C)(C)C)OC (stereo not shown) [1-O-octadecyl-2-O-methylglycero-phosphocholine] | ~1 µM | 35 µM | have shown clinical anti-tumor activity | – |
| COC[C@H]1OC(=O)c2coc3c2[C@@]1(C)C1=C(C3=O)[C@@H]2CCC(=O)[C@@]2(C)C[C@H]1OC(C)=O [wortmannin] | – | – | – | blocked Akt activation |

Source: patent publication US6667340B1, “Inhibitors of phosphatidyl myo-inositol cycle” (Arizona Board of Regents on behalf of the University of …, priority 1998, dated 2003)
